In publication PMC8129794:
Results are given in words; binding and its absence hold for the method and conditions named. Binding seen in cells or lysates may run through a third protein. Some results given as binding are weak or reduced against the parent protein; the word gives no strength. Sequences can lack the tags named with a protein.

The chains behind the UniProt entries cited, without tags or fusion partners.
UniProt Q93034: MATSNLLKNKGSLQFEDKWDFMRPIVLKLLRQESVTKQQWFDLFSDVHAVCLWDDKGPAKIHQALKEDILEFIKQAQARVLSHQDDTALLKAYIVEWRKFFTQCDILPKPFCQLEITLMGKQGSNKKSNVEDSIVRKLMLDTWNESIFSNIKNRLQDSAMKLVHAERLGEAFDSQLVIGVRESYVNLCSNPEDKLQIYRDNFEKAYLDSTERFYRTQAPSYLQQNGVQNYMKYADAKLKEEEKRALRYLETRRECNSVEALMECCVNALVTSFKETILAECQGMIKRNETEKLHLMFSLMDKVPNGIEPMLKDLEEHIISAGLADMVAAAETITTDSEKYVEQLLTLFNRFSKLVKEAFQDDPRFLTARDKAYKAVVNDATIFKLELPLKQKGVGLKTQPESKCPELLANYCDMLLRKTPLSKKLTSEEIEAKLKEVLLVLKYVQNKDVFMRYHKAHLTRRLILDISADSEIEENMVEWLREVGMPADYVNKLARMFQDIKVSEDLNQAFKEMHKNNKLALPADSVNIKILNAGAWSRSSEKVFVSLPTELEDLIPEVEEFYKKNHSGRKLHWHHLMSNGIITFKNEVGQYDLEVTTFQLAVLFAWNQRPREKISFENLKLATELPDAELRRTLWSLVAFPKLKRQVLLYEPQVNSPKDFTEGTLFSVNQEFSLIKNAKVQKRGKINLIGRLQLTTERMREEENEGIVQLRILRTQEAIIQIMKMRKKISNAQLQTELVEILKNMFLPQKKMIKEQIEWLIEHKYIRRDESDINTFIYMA
UniProt Q9UHB6: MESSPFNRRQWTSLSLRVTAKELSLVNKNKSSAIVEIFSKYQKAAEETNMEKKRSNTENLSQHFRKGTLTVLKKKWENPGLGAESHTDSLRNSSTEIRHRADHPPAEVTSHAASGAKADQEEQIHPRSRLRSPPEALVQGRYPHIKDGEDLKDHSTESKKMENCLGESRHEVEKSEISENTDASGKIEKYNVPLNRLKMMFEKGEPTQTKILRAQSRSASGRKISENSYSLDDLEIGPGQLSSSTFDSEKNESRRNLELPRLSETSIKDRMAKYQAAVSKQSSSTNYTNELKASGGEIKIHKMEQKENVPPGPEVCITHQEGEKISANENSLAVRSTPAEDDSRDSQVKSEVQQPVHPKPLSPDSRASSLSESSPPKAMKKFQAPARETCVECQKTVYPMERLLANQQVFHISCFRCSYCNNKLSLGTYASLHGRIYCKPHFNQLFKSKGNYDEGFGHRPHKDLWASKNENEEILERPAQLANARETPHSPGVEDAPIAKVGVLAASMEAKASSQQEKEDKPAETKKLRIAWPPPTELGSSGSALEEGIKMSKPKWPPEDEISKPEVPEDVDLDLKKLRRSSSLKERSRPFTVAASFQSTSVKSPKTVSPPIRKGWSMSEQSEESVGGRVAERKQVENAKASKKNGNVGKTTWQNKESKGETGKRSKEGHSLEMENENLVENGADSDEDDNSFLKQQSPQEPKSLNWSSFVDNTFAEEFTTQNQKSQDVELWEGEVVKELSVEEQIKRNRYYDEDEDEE

T1: GST-Rab40b (UniProt Q12829)
T1 sequence: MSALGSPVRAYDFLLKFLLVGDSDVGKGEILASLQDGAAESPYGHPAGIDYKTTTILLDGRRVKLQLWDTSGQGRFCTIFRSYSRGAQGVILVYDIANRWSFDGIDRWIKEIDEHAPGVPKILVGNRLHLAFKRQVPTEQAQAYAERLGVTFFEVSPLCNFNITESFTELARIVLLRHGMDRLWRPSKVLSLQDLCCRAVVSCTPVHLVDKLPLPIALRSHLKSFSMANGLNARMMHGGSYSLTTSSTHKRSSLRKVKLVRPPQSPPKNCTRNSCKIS

T2: FLAG-Rab40b (UniProt Q12829)
T2 sequence: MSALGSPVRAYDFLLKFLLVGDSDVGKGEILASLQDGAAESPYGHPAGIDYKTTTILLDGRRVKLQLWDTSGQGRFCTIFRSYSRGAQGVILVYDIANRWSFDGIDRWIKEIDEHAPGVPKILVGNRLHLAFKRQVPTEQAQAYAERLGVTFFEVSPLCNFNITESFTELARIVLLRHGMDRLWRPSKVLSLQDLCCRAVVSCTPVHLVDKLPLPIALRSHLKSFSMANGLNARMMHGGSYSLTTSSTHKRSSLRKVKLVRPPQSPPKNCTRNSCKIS

T3: FLAG-Rab40b-4A (UniProt Q12829)
T3 sequence: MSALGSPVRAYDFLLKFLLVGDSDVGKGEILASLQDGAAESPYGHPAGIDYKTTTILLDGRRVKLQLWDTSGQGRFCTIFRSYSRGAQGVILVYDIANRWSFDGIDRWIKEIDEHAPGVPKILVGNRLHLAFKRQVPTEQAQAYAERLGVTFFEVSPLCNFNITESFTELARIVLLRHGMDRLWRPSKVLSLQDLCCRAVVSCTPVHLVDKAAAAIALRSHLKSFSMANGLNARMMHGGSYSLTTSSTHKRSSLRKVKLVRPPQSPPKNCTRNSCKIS


What was measured:
GST-Rab40b = molecular target: T1, GST-Rab40b; test: pull-down; glutathione beads coated with GST or purified GST-Rab40b preloaded with GTPgammaS or GDPbetaS, incubated with control MDA-MB-231 lysate; WB for EPLIN; only the target purified
FLAG-Rab40b = molecular target: T2, FLAG-Rab40b; test: co-IP; lysates of FLAG-Rab40b or FLAG-Rab40b-4A cells, with or without GTPgammaS, IgG or anti-FLAG antibody and Protein G beads, 37°C; wash 300 mM NaCl, 0.1% Triton X-100, 0.1% SDS; WB anti-EPLIN
FLAG-Rab40b-4A = molecular target: T3, FLAG-Rab40b-4A; test: as above
GST-Cullin5 = GST-Cullin5 (UniProt Q93034); test: pull-down; glutathione beads coated with GST-Cullin5 or GST, incubated with MDA-MB-231 lysates expressing FLAG-Rab40b (GDP or GTPgammaS) or FLAG-Rab40b-4A; 50 mM Hepes pH 7.4, 150 mM NaCl, 0.1% Triton X-100, 25°C, 1 h; WB anti-FLAG; only the target purified

| binding (GST-Rab40b) | binding (FLAG-Rab40b) | binding (FLAG-Rab40b-4A) | binding (GST-Cullin5) | Molecule |
| --- | --- | --- | --- | --- |
| binds | binds weakly | binds | – | EPLIN (epithelial protein lost in neoplasia) (from UniProt Q9UHB6 1-759) |
| – | – | – | binds | FLAG-Rab40b (protein, UniProt Q12829 1-278) MSALGSPVRAYDFLLKFLLVGDSDVGKGEILASLQDGAAESPYGHPAGIDYKTTTILLDGRRVKLQLWDTSGQGRFCTIFRSYSRGAQGVILVYDIANRWSFDGIDRWIKEIDEHAPGVPKILVGNRLHLAFKRQVPTEQAQAYAERLGVTFFEVSPLCNFNITESFTELARIVLLRHGMDRLWRPSKVLSLQDLCCRAVVSCTPVHLVDKLPLPIALRSHLKSFSMANGLNARMMHGGSYSLTTSSTHKRSSLRKVKLVRPPQSPPKNCTRNSCKIS |
